These results are taken from US20090010923A1, “TREATMENT OF CANCER WITH ANTI-MUSCARINIC RECEPTOR AGENTS” (University of Maryland, Baltimore, priority 2007, published 2009).

This experiment deals with muscarinic receptor subtypes. The following applies: in vitro.

Regarding `CN1[C@@H]2C[C@@H](OC(=O)[C@H](CO)c3ccccc3)C[C@H]1[C@@H]1O[C@@H]12` [scopolamine], the “attenuation of bile acid actions” value was “attenuated”.
